Source: PubChem BioAssay AID2685 (National Center for Advancing Translational Sciences (NCATS), 2010)
The other results are listed elsewhere or left out. Shown are side measurements of this screen, not its main read-out; they come without a call. The list favours compounds with an active or inconclusive main result. Potencies come from curve fits of mixed quality, noted in brackets.

Experiment: qHTS Assay for Lipid Storage Modulators in Drosophila S3 Cells;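 as to cell number change: cells counted by Cell Tracker Red CMTPX staining in the red channel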
Conditions: BODIPY lipid droplet fluorescence, 18-24 h; for cell number change: measured here: cell count max response, cells fed with added oleic acid
Procedure, shortened: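 Drosophila S3 cells got compounds at several concentrations plus oleic acid (400 uM solution). Laser-scanning cytometry with 488 nm excitation read lipid droplets at 500-530 nm and cells at 575-640 nm. Percent activity was relative to 20 uM Triacsin C.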

[1] = measured here: lipid fluorescence (Fed channel) AC50, cells fed with added oleic acid
[2] = measured here: cell number channel AC50, cells fed with added oleic acid

Row | Structure (SMILES) | cell number change | AC50 [1] | AC50 [2]
1 | O=C(Oc1ccc(C(=S)N2CCOCC2)cc1)c1ccccc1 | -14.2% | 0.00651 µM [falling, full curve, poor fit] | 
2 | CCN(CC)C(=O)Cn1cnc2sc(C(=O)N3CCN(c4ccc(OC)cc4)CC3)c(C)c2c1=O | 15.2% | 0.82 µM [falling, full curve] | 2.06 µM [falling, partial curve]
3 | COC(=O)c1c(NC(=O)Cc2ccccc2)sc2c1CC(C)(C)NC2(C)C | 1.8% | 2.06 µM [rising, partial curve] | 
4 | O=C(CN1CCOCC1)NC1CC2CCC1C2 (stereo unspecified) |  | 3.26 µM [falling, partial curve, poor fit] | 6.51 µM [falling, partial curve, poor fit]
5 | O=C(O)CSc1nnc(COc2cccc3ccccc23)n1Cc1ccccc1 | -18.8% |  | 2.59 µM [falling, single point]
6 | O=C(c1cccc(S(=O)(=O)NCc2ccccc2)c1)N1CCN(c2cccc(C(F)(F)F)c2)CC1 | 0.242% | 29.1 µM [falling, single point] | 
7 | Nc1ccc(CSc2ccc(Cl)cc2)cc1 | 26.5% | 6.51 µM [falling, single point] | 
8 | Cc1ccccc1OCC(=O)OC(C)CN1CCN(C)CC1 (stereo unspecified) | 10.2% |  | 
9 | CCCCOc1ccc(Cc2n[nH]c(=S)n2N)cc1 | -11.7% |  | 
10 | O=[N+]([O-])c1ccc(N2CCN(c3nc(-c4ccc(Cl)cc4)cs3)CC2)cc1 | 16.6% | 0.92 µM [falling, single point] | 
11 | Cn1cccc1C(=O)NNC(=O)COc1ccc(C#N)cc1 | -14.9% |  | 
12 | O=C(Cc1ccc(Br)cc1)NCCCn1ccnc1 | 40.7% |  | 13 µM [rising, partial curve, poor fit]
13 | COc1ccc(C(=O)c2ccc(Cl)cc2)cc1 | 15.5% |  | 
14 | Cc1ccc(C(=O)Nc2cc(Cl)ccc2-n2cncn2)s1 |  | 0.00461 µM [rising, full curve, poor fit] | 0.00461 µM [rising, full curve, poor fit]
15 | O=S(=O)(NNc1ccc(Cl)nn1)c1ccc(F)cc1 | 58.6% | 16.4 µM [rising, partial curve] | 18.4 µM [rising, single point]
16 | COc1ccc2c(c1)N1CCN=C1N2C | 0.336% |  | 
17 | Cc1cc(C)c(C#N)c(SCCS(=O)(=O)c2ccc(Cl)cc2)n1 | 8.92% | 3.66 µM [rising, single point] | 
18 | O=C(CCc1c[nH]c2ccccc12)NCCc1ccc2c(c1)OCCO2 | 5.13% | 5.17 µM [falling, single point] | 
19 | CCCCN(Cc1ccco1)C(=O)Cn1ncc2c(=O)oc3ccc(C)cc3c21 | 29.8% |  | 0.206 µM [rising, full curve, poor fit]
20 | COc1ccc(OC(C)C(=O)Nc2cccc(F)c2)cc1 (stereo unspecified) | 6.99% | 14.6 µM [rising, partial curve, poor fit] | 
21 | CCOc1ccc(C(=O)Nc2cccc(-c3nc4ccccc4[nH]3)c2C)cc1[N+](=O)[O-] | -33.6% | 7.31 µM [falling, partial curve, poor fit] | 1.46 µM [falling, partial curve, poor fit]

Copied from the list.
cell number change with Cn1cccc1C(=O)NNC(=O)COc1ccc(C#N)cc1 is entered as -14.9%
cell number change with CCCCOc1ccc(Cc2n[nH]c(=S)n2N)cc1 is entered as -11.7%

Going on with the list.

Row | Structure (SMILES) | cell number change | AC50 [1] | AC50 [2]
22 | CCCn1c(SCC(=O)Nc2ccccc2-c2ccccc2)nnc1-c1ccoc1C | -0.612% | 2.06 µM [rising, partial curve] | 
23 | COCCN(C(=O)c1snc(C(N)=O)c1N)C(C(=O)NC1CCCCC1)c1ccc(F)cc1 (stereo unspecified) | -13.9% |  | 
24 | O=C(NNC(=O)c1cccc2ccccc12)c1ccco1 | 10.3% | 29.1 µM [rising, single point] | 
25 | COc1ccccc1/C=C(/C(=O)OCC(N)=O)c1ccccc1 | 40.7% | 29.1 µM [rising, single point] | 32.6 µM [rising, single point]
26 | COc1ccc(CNC(=O)C(=O)NCC2CCCO2)cc1 (stereo unspecified) | 18.2% | 2.06 µM [falling, partial curve] | 
27 | COc1ccc2cc(CN(CCCN3CCOCC3)Cc3nnnn3C3CCCCC3)c(=O)[nH]c2c1 | -31.7% |  | 5.17 µM [falling, full curve, poor fit]
28 | CCCCNC(=O)CSc1nc2ccsc2c(=O)n1CCCC(=O)NCCc1ccc(S(N)(=O)=O)cc1 | -35% | 29.1 µM [falling, single point] | 29.1 µM [falling, single point]
29 | S=C(Nc1ccc(Cl)cc1)N(CCCN1CCOCC1)Cc1cccs1 | 13% | 20.6 µM [rising, partial curve] | 
30 | CC(C(=O)Nc1ccc(S(=O)(=O)N2CCCC2)cc1)N1CCc2ccccc2C1 (stereo unspecified) | -25.9% | 23.1 µM [falling, partial curve] | 
31 | Cc1cc(N2CC(C)OC(C)C2)nc2ccccc12 (stereo unspecified) |  | 0.0517 µM [rising, full curve, poor fit] | 
32 | O=[N+]([O-])c1ccc(C2=Nn3cnnc3SC2)cc1 | -18.2% |  | 1.84 µM [falling, partial curve]
33 | NC(=O)CC(NC(=O)OCc1ccccc1)C(=O)O (stereo unspecified) | 12.3% |  | 
34 | CSc1ncc(Cl)c(C(=O)Nc2ccccc2[N+](=O)[O-])n1 | -8.07% | 29.1 µM [falling, single point] | 
35 | OCCC1CCCCN1CC(O)COCc1ccc(Cl)cc1 (stereo unspecified) | -5.22% | 6.51 µM [rising, single point] | 
36 | O=C(Nc1ccc(F)cc1)Nc1nnc(Cc2ccccc2F)s1 | -0.88% | 11.6 µM [falling, partial curve] | 
37 | CCOC(=O)Cc1cc(-c2ccc(O)cc2)nc2ccc3ccccc3c12 | -7.68% | 18.4 µM [falling, single point] | 
38 | Cc1ccc(C)c(S(=O)(=O)N2CCCC2CNC(=O)C(=O)NCc2ccco2)c1 (stereo unspecified) | 83.9% |  | 
39 | O=C(O)C1C2C=CC(C2)C1C(=O)OC1CC2CCC1C2 (stereo unspecified) | -12.2% | 3.66 µM [falling, partial curve] | 
40 | N#C/C(=C\c1cccnc1)C(=O)NC1CCCCC1 |  | 3.66 µM [falling, partial curve] | 
41 | COC(=O)CCCC1=CC2=C(c3ccccc3)C(=O)C(C)(OC(=O)C3CCCC3)C(=O)C2=CN1c1ccccc1 (stereo unspecified) | -24% | 14.6 µM [falling, partial curve, poor fit] | 
42 | NC(N)=NN=C1CCC(c2ccccc2)CC1 (stereo unspecified) | 17.1% | 1.16 µM [rising, single point] | 

Row | Structure (SMILES) | cell number change | AC50 [1] | AC50 [2]
43 | COc1cc2c(cc1OC)CN(C(C)C(=O)Nc1ccc(NC(C)=O)cc1)CC2 (stereo unspecified) | -48.8% |  | 10.3 µM [falling, partial curve]
44 | CC1(C)C2CCC(C2)C1(C)N=C1OC(CCl)CS1 (stereo unspecified) | -29.1% | 29.1 µM [falling, single point] | 
45 | CC1(C)CC(=O)C(C(O)c2ccc([N+](=O)[O-])cc2)C(C)(C)N1 (stereo unspecified) | 2.78% |  | 0.651 µM [rising, single point]
46 | COc1ccc(C(=O)c2c(O)cc(-c3ccc(OC)cc3)oc2=O)cc1 |  | 0.651 µM [falling, single point] | 1.03 µM [falling, partial curve]
47 | COc1cc(NC(=S)N2c3ccccc3CC2C)cc(OC)c1 (stereo unspecified) | 13.6% | 0.651 µM [rising, partial curve, poor fit] | 
48 | Cc1ccc(/C=C/C(=O)NCc2ccco2)o1 | 5.91% | 0.731 µM [rising, single point] | 
49 | Cc1ccccc1N1CCN(C(=O)CN2C(=O)c3ccccc3C2=O)CC1 | 10.6% |  | 
50 | CCOC(=O)c1c(-c2ccc(C)cc2)csc1/N=C/N(C)C | -4.78% | 6.51 µM [falling, single point] | 
51 | Cc1c([N+](=O)[O-])cc(C(=O)Nc2ccc(NC(=O)c3ccco3)cc2)cc1[N+](=O)[O-] | 10.8% |  | 
52 | O=C(Nc1cccnc1)c1ccc(COc2ccccc2Br)o1 |  | 0.116 µM [falling, full curve, poor fit] | 
53 | O=C(Nc1cccnc1)c1cc2cc(Br)ccc2o1 | 4.74% |  | 
54 | Cn1nc(C(=O)Nc2cccc(Cl)c2)cc1C(=O)Nc1cccc(Cl)c1 | 39.4% |  | 29.1 µM [rising, single point]
55 | O=C(NCCc1ccccc1)Oc1ccc(Cl)cc1 | 1.23% | 7.31 µM [rising, partial curve, poor fit] | 
56 | c1ccc(OCCOCCN2CCN(C(c3ccccc3)c3ccccc3)CC2)cc1 | -58.2% | 29.1 µM [falling, single point] | 29.1 µM [falling, single point]
57 | COc1ccc2[nH]c(C)c(CCN(Cc3cccs3)C(=S)Nc3ccccc3)c2c1 |  | 0.13 µM [rising, full curve, poor fit] | 0.092 µM [rising, full curve]
58 | O=C(NCC(=O)N1CC=C(c2ccccc2)CC1)c1ccco1 | -41.1% | 6.51 µM [rising, single point] | 0.13 µM [falling, full curve, poor fit]
59 | C=CCn1c(SCC(=O)NC2CC2)nnc1-c1ccccn1 | -22.1% | 23.1 µM [rising, single point] | 
60 | O=C(COC(=O)c1cnc(Cl)c(Cl)c1)NCCC1=CCCCC1 | -26.8% |  | 
61 | COc1ccc(OC)c(S(=O)(=O)N2CCC3(CC2)CC(=O)c2ccccc2O3)c1 | -12% | 11.6 µM [falling, partial curve] | 
62 | COc1ccc(CC(=O)OCC(=O)c2c[nH]c3ccccc23)cc1 | -7.09% | 6.51 µM [rising, full curve] | 
